Laboratory results taken from patent publication US8361967B2 (Tianjin Medical University, priority 2008, dated 2013).

Assay: peptide made by a vendor (Fmoc solid-phase peptide synthesis; Fmoc-Asp(OtBu)-Wang Resin)
Conditions: whole synthesis

## HKQLVFFEED
  final HPLC purity: >95%

No end group written: not given here.
